In PMC5013666:
These are yes or no findings as the source states them, for the method shown. In cells and extracts the contact can be indirect. Binding can be weak; no strength is given.

By UniProt entry, the sequences of proteins in these tests, tags left out. Where a name states a change or a piece, a line headed by the entry shows the natural chain unless it says otherwise. Residues count along the entry.
UniProt P06213, residues 763-1382: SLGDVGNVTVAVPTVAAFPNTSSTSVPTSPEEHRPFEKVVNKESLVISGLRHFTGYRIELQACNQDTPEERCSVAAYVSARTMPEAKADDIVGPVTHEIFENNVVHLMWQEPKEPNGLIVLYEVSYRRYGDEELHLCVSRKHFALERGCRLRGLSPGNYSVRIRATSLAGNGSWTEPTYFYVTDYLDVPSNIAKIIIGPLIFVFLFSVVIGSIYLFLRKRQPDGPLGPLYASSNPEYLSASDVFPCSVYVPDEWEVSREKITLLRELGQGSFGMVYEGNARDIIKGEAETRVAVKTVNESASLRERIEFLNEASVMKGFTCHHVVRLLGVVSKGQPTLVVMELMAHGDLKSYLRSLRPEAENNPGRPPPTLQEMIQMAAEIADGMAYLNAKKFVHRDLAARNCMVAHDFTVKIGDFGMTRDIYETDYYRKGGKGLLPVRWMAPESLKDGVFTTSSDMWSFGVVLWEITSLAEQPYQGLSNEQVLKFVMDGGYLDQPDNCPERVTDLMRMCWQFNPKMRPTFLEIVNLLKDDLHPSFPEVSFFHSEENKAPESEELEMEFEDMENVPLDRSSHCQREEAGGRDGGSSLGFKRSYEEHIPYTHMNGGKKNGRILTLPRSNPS
UniProt Q8TCQ1: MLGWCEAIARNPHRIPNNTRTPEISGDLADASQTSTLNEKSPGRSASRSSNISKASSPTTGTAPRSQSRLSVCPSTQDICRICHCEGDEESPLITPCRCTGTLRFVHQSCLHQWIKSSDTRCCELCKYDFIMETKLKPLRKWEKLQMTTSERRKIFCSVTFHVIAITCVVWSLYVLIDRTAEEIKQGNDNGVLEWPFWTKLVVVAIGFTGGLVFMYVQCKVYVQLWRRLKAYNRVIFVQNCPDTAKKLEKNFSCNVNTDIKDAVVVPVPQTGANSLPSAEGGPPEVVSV

Molecular target: INSRβ (insulin receptor beta subunit), endogenous (human (endogenous in HeLa and HepG2)) (UniProt P06213)
Assay: co-IP; HeLa or HepG2 cells, untransfected or transfected with MARCH1 or MARCH1 deletion constructs, 5 μM MG132 overnight; IP Lysis buffer (Pierce); immunoprecipitation with IgG or anti-INSRβ antibody and protein G-agarose beads; immunoblot

| Substance | binding |
| --- | --- |
| MARCH1ΔC-Term-YFP (from UniProt Q8TCQ1) (enzyme) | binds |
| MARCH1ΔRING-YFP (from UniProt Q8TCQ1) (enzyme) | binds |
